Columns and labels:
D-Apt49 [1] = assay: Homogeneous electrochemical competitive binding assay in Tris buffer; details: for ip^(∞) /ip^0: 5 µM Fc-L-Tym
Description: (§1) All experiments were performed in 5 mM Tris buffer (pH 7) containing 10 mM MgCl2 and 50 mM NaCl (Recognition Buffer, RBr). The L-Tym concentration is always 5 µM. For cyclic voltammetric experiments, 1 µM [Os(bpy)3]2+ with 5 µM 1-Tym in a droplet of 50 µL RBr was used. So, before each experiment, the droplet is shaking with a micropipette. This procedure is repeated until we obtain a reproducible and stable voltammogram. Mother solution of Fc-1-Tym was a […] solution in DMF. This product is conserved at 4°C and seal with parafilm. Before each experiment, this solution is diluted 10 times in stabilized DMF, such as 0.2 µL in 50 µL of RBr leads to 5 µM of Fc-1-Tym.
Cyclic voltammetry measurements were performed with an AUTOLAB PGSTAT 12 potentiostat/galvanostat controlled by computer, and the data were acquired using GPES 4.9007 software (EcoChemie, The Netherlands). Small self-contained electrochemical cells made of 3 screen-printed electrodes on a flat substrate were used for all experiments. The electrodes were printed using a DEK model-65 screen-printer. Working electrodes were 4 mm diameter screen-printed carbon electrodes prepared using a commercial carbon ink (Electrodag PF-470 A) deposited on the top of an underlying Ag layer (Electrodag 418 SS). Counter electrode was obtained using an Ag ink (Electrodag 418 SS).
Before experiments, the screen-printed carbon electrodes were coated with bovine serum albumin (BSA) by immersing the electrodes in a 1 mg/mL BSA solution for 10 minutes at room temperature. […]
(§2) The competitive assay can be described by the two equilibrated binding reactions 6a and 6b, in which Fc-L-Tym is L-tyrosinamide labeled by a redox-active ferrocene group. […] Note that under this condition the catalytic oxidation of the phenolic residue is no more possible and only the ferrocene labeled molecule can be detected. […] The value of K^*d was determined by monitoring in CV the reversible response of 5 µM Fc-L-Tym solution as a function of increasing concentrations of D-Apt49. […]

D-Apt49 [2] = assay: Cyclic voltammetry titration of ferrocene-labeled target with aptamer; assay type: binding
Description: as §1
Cyclic voltammetry measurements were performed with an AUTOLAB PGSTAT 12 potentiostat/galvanostat controlled by computer, and the data were acquired using GPES 4.9007 software (EcoChemie, The Netherlands). […]
as §2

D-Apt49 [3] = assay: Homogeneous electrochemical competitive binding assay in 20% fetal bovine serum; details: 5 µM Fc-L-Tym
Description: • Figure 1: Electrochemically competitive assay of the invention. Left-hand column: before the addition of the sample: a first redox signal is measured. Right-hand column: after the addition of a sample containing the target to be detected or measured: a second redox signal is measured. (A) Homogeneous electrochemically competitive assay: the presence of the target disrupts the complex formed between the oligonucleotide ligand and the redox-labeled target. […] (B) Heterologous electrochemically competitive assay, wherein the oligonucleotide ligand is attached to a solid phase: the presence of the target disrupts the complex formed between the oligonucleotide ligand and the redox-labeled target, thereby inducing a better detection of the redox labeled-target. […] (C) Heterologous electrochemically competitive assay, wherein the oligonucleotide ligand is attached to the electrode: the presence of the target disrupts the complex formed between the oligonucleotide ligand and the redox-labeled target, thereby reducing the detection of the redox labeled-target. […] (f) CV of 1 µM [Os(bpy)3]^2+ alone. […] Error bars: standard deviations from 3 measurements. […]

Row | Structure (SMILES) | lowest concentration detected in the presence of excess enantiomer (D-Apt49 [1]; in the presence of 5 mM D-Tym, 10 µM D-Apt49, Tris buffer) [µM] | ip^(∞) /ip^0 (D-Apt49 [2]; normalized anodic peak current of ferrocene at infinite aptamer concentration, fit in Figure 3B) | K^*d lower than the dissociation constant obtained for L-Tym (D-Apt49 [2]; ratio of Kd of L-Tym to K^*d of Fc-L-Tym) | ip^(∞) /ip^0 (D-Apt49 [3]; 40 µM D-Apt49) | ip^(∞) /ip^0 (D-Apt49 [3]; 100 µM D-Apt49) | ip^(∞) /ip^0 (D-Apt49 [1]; 3 µM D-Apt49, Tris buffer) | ip^(∞) /ip^0 (D-Apt49 [1]; 10 µM D-Apt49, Tris buffer)
1 | NC(=O)[C@@H](N)Cc1ccc(O)cc1 [L-Tym, L-tyrosinamide] | 5 | – | – | – | – | – | –
2 | NC(=O)[C@@H](N)Cc1ccc(O[c-]2cccc2)cc1.[Fe+2].c1cc[cH-]c1 [Fc-L-Tym, O-Ferrocenyltyrosynamide] | – | 0.40 | ~ 2.5 fold | 0.15 | 0.15 | 0.44 | 0.44

Source: patent EP2657347A1, “Electrochemical competitive assay and use thereof” (Université Paris Diderot - Paris 7, priority 2012, dated 2013)
